Test results as given in PubChem BioAssay AID1439 (NMMLSC, 2008).
The whole screen tested about 220,000 compounds, of which about 770 (0.35%) were called active. Inconclusive results, whose numbers are uncertain, are shown with a selection of clear calls. Cut-off read from the data, not from the text of the source: active = binding response below about 49% or above about 150%; inconclusive = no clear call, values can overlap the other calls; inactive = in between.

The chains behind the UniProt entries cited, without tags or fusion partners.
UniProt P09471, whole entry, looked up: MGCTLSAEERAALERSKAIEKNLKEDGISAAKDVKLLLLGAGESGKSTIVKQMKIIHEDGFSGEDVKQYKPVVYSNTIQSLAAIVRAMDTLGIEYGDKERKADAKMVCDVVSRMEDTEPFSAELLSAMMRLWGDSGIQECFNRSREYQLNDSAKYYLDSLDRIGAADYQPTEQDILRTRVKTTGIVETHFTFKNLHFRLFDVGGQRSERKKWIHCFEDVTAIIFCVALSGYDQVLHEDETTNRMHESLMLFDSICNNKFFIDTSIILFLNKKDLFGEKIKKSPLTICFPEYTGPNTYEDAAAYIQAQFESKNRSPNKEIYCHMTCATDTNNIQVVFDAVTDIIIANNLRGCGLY

What follows are compounds tested against Guanine nucleotide-binding protein G(o) subunit alpha (Homo sapiens) (UniProt P09471) (assay: RGS7-Galphao binding modulators, primary screen, biochemical, multiplexed bead flow cytometry (AID 1439;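 note: fluorescent Galphao held in activated GDP-AlF4 state binding bead-coupled RGS7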)). Settings: at 10 µM, actives lie on both sides.
For `COc1cc(CNc2ncnc3c2[nH]c2ccc(C)cc23)cc(OC)c1`, the binding response (% of control) was inconclusive: 67.8%.
With `CSCC[C@H](NC(=O)COc1ccc(Cl)cc1)c1nc2ccccc2[nH]1` the binding response (% of control) was inactive: 108%.
For `S=C(NCCc1ccccc1)Nc1cccc2cnccc12`, the binding response (% of control) was inactive: 103%.
`CCOc1ccc(-c2nnc(-c3ccc(OC)cc3)o2)cc1` was tested, and the binding response (% of control) was active: 17.5%.
`COC(=O)NC(NS(=O)(=O)c1ccccc1)(C(=O)OC)C(F)(F)F` (stereo not given) was tested, and the binding response (% of control) was inconclusive: 62.6%.
For `C=CCN(C(=O)Nc1ccc(F)cc1)C1CC(=O)N(c2ccc(OC)cc2)C1=O` (stereo not given), the binding response (% of control) was inactive: 125%.
`O=C(O)c1ccc(/C=N/Nc2cccc(C(F)(F)F)c2)cc1` was tested, and the binding response (% of control) was inconclusive: 92.2%.
In the case of `COc1ccc(Nc2nc3ccccc3c(=O)[nH]2)cc1`, the binding response (% of control) was inconclusive: 72%.
With `O=C(NCCN1CCN(Cc2ccccc2)CC1)Nc1cc(Cl)cc(Cl)c1` the binding response (% of control) was inconclusive: 95.5%.
`CCN(CC)c1ccc(/C=C2/C(=O)c3ccc(C(=O)O)cc3C2=O)cc1` was tested, and the binding response (% of control) was inactive: 85.8%.
In the case of `Cc1cc(=O)n2[nH]c(SCc3ccc(Cl)cc3)nc2n1`, the binding response (% of control) was inconclusive: 64%.
In the case of `Cc1ccc2nc(COc3ccc(N(C)S(=O)(=O)c4ccccc4)cc3)cc(=O)n2c1`, the binding response (% of control) was inconclusive: 71.7%.
With `O=C(CN1CCC(N2CCCCC2)CC1)N1CCOCC1` the binding response (% of control) was inconclusive: 88.6%.
With `CCC(=O)Nc1cc(-c2nn(CC(=O)N3CCCCC3)c(=O)c3ccccc23)ccc1N1CCOCC1` the binding response (% of control) was active: 155% [activator].
In the case of `COc1ccc(C(CCO)NC(=O)c2cccs2)cc1OC` (stereo not given), the binding response (% of control) was inactive: 110%.
With `CN(C)c1ccc(/C=C2\SC(=O)N(CCc3nnc(N)s3)C2=O)cc1` the binding response (% of control) was inconclusive: 21.1%.
With `Cc1csc2nc(NC(=O)c3ccccc3)sc(=O)c12` the binding response (% of control) was inconclusive: 85.2%.
With `O=C(NNc1ncccc1-n1cccc1)c1ccc(Cl)cc1` the binding response (% of control) was inconclusive: 123%.
`CCOC(=O)C1(CCOC)CCN(C2C3CC4CC(C3)CC2C4)CC1` (stereo not given) was tested, and the binding response (% of control) was inactive: 107%.
For `O=C(Nc1ccc(Cl)c(Cl)c1)Nc1ccccc1O`, the binding response (% of control) was inconclusive: 258%.
In the case of `COC(=O)c1cnn(-c2ccccc2)c1N`, the binding response (% of control) was inconclusive: 181%.
With `O=C(/C=C/c1cn(-c2ccccc2)nc1-c1cccs1)NCCN1CCOCC1` the binding response (% of control) was inconclusive: 126%.
In the case of `COc1cc(C(F)(F)F)c(C(=O)N(C)Cc2cccc(Cl)c2)cn1`, the binding response (% of control) was inconclusive: 34.5%.
In the case of `COc1ccc(N2CCN(C(=O)c3cccc(Br)c3)CC2)c([N+](=O)[O-])c1`, the binding response (% of control) was inconclusive: 85.7%.
For `O=C1OC2(O)C3C4C=CC(C4)C3C(=O)N2c2ccccc21` (stereo not given), the binding response (% of control) was inconclusive: 83.2%.
In the case of `O=[N+]([O-])c1cc(/C=N/Nc2nc3ccccc3[nH]2)c(O)cc1O`, the binding response (% of control) was inactive: 99.1%.
For `CCc1nnc(NC(=O)c2ccc3c(=O)n4c(nc3c2)CCCCC4)s1`, the binding response (% of control) was inconclusive: 137%.
`O=C(c1cnccn1)N(Cc1cccs1)C1(C(=O)NC2CCCC2)CCCCC1` was tested, and the binding response (% of control) was inactive: 95.8%.
`CCCCn1c(N)c(N(CC)C(=O)/C=C/c2ccco2)c(=O)[nH]c1=O` was tested, and the binding response (% of control) was inconclusive: 91.7%.
`O=[N+]([O-])c1ccc(Nc2nc(Cl)nc(NCCO)n2)cc1` was tested, and the binding response (% of control) was inconclusive: 103%.
For `COc1cccc(/C=N/NC(=O)CNC(=O)COc2ccccc2)c1O`, the binding response (% of control) was inconclusive: 82.8%.
With `COc1ccc(C2CC(c3ccccc3)Nc3nc(N)nn32)cc1` (stereo not given) the binding response (% of control) was inactive: 112%.
`Cc1ccc2[nH]c3c(=O)n(Cc4ccco4)cnc3c2c1` was tested, and the binding response (% of control) was inconclusive: 79.6%.
In the case of `COc1c(C(=O)NNC(=O)c2ccccc2)csc1Br`, the binding response (% of control) was inconclusive: 112%.
In the case of `CCOc1ccc(NC(=O)CSc2nc3ccccc3c(=O)n2CCCC(=O)NCCCN2CCCC2=O)cc1`, the binding response (% of control) was inactive: 103%.
For `CCN(CC)c1ccc(/C=C(\C#N)c2nc(-c3cccs3)c(NC(C)=O)s2)cc1`, the binding response (% of control) was inactive: 103%.
For `NNC(=O)Cn1cnc2ccccc21`, the binding response (% of control) was inconclusive: 107%.
`CC1CC(C)CN(C(=O)c2cccc3c2-c2ccccc2C3=O)C1` (stereo not given) was tested, and the binding response (% of control) was inconclusive: 80.7%.
`CCn1c(SCC(=O)Nc2cc(C(C)(C)C)nn2-c2ccccc2)nnc1-c1cccs1` was tested, and the binding response (% of control) was active: 185% [activator].
In the case of `CCOC(=O)C1CCN(C(=O)COc2ccc(Br)cc2Br)CC1`, the binding response (% of control) was inconclusive: 107%.
For `O=C(O)C1CCC(=O)N1C(=O)OCc1ccccc1` (stereo not given), the binding response (% of control) was inconclusive: 120%.
In the case of `Cc1cccc2[nH]c3c(N4CC=C(c5ccc(F)cc5)CC4)ncnc3c12`, the binding response (% of control) was inconclusive: 111%.
In the case of `Cc1cc2nc(CSc3ccccc3)cc(=O)n2[nH]1`, the binding response (% of control) was inconclusive: 140%.
For `CC(C)(C)c1nc(N)nc(=O)[nH]1`, the binding response (% of control) was inconclusive: 74%.
For `Cc1ccc(NC(=O)CCC(=O)N/N=C/c2ccc([N+](=O)[O-])o2)cc1C`, the binding response (% of control) was inconclusive: -300%.
